The campaign covered roughly 330,000 compounds. About 7,700 (2.3%) were called active. The shares of active, inactive and inconclusive entries below differ from those in the screen. Calls come from the whole dose curve; as a rule, active = well fitted inhibition curve with a large enough effect; inconclusive = small, poorly fitted or top-dose-only effect, or effect the other way; inactive = flat fitted curve, though single readings scatter. Potencies beside an inconclusive call are fits to weak or partial responses and may not hold up.
Assay: qHTS screen for small molecules that inhibit ELG1-dependent DNA repair in human embryonic kidney (HEK293T) cells expressing luciferase-tagged ELG1; note: nearly all actives have a fitted effect of over 55% in size
Details: HEK293T ELG1-luciferase reporter, luminescence, 16 h, DNA damage induced by 5-fluorouridine; activity change, negative = inhibition: at 46.1 µM (top of the series)
How it was run: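 DMSO vehicle served as the neutral condition. Each well held 2,000 cells given 5-fluorouridine plus compound; after 16 hr at 37 °C/5% CO2, ONE-Glo was added and luciferase measured 30 min later.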
For `COc1ccc(CC(=O)Nc2cccc(-c3cn4ccccc4n3)c2)cc1`, the Potency was inconclusive: 32.6 µM [inhibitor, single point].
In the case of `COc1cc(OC)c(OC)cc1/C=C1\CCC/C(=C\c2cc(OC)c(OC)cc2OC)C1=O`, the Potency was active: 14.6 µM.
With `CC(OC(=O)c1cc2ccccc2o1)C(=O)Nc1ccc(N2CCOCC2)cc1` (centres undefined) the Potency was inconclusive: 29.1 µM [activator, single point].
In the case of `Cc1ccc(S(=O)(=O)c2nc(-c3ccccc3)oc2NCc2cccnc2)cc1`, the Potency was inconclusive: 20.6 µM [inhibitor, single point].
In the case of `c1csc(-c2ccc3ccccc3n2)c1`, the Potency was inconclusive: 29.1 µM [activator, single point].
For `CC1(c2ccc(Cl)c(Cl)c2)NC(=S)N2C1NC(=S)N2c1ccccc1` (centres undefined), the “activity change, negative = inhibition” value was inactive: 15.8%.
For `COC(=O)c1ccc(OC)c(Cn2c(=O)n(C)c(=O)c3sccc32)c1`, the Potency was inconclusive: 11.2 µM [activator, partial curve, poor fit].
In the case of `CCCOc1ccc(Oc2nc(-c3ccncc3)nc3ccccc23)cc1`, the Potency was inconclusive: 14.6 µM [inhibitor, partial curve].
With `CCCC(=O)c1cc(F)c(N2CCOCC2)cc1C` the Potency was inconclusive: 18.4 µM [activator, single point].
With `COc1ccc(OC)c(NC(=O)C2CCCN(S(=O)(=O)c3cccc4nsnc34)C2)c1` (centres undefined) the Potency was active: 20.6 µM.
In the case of `CC(NC(=O)c1cc(=O)[nH]c2ccccc12)c1ccc(F)cc1F` (centres undefined), the Potency was inconclusive: 29.1 µM [activator, single point].
In the case of `O=S(=O)(Nc1ccc2nc(-c3ccc(Br)o3)[nH]c2c1)c1ccccc1`, the Potency was inconclusive: 13 µM [activator, partial curve].
In the case of `c1ccc2c(c1)OCCOCCOCCOCCOCCOc1ccccc1OCCOCCOCCO2`, the Potency was inconclusive: 29.1 µM [inhibitor, single point].
In the case of `O=C(c1cn(Cc2ccccc2)nc1-c1ccc(Cl)cc1)N1CCN(c2ccccn2)CC1`, the Potency was inconclusive: 23.1 µM [inhibitor, single point].
In the case of `CCCC(=O)Nc1ccc(-c2csc(-c3cccnc3)n2)cc1`, the “activity change, negative = inhibition” value was inactive: -18.7%.
For `O=c1[nH]c(/C=C/c2ccccc2)c([N+](=O)[O-])c(=O)[nH]1`, the “activity change, negative = inhibition” value was inactive: -21.9%.
For `Cc1ccc(S(=O)(=O)Nc2ccc(-c3nc4cc(NS(=O)(=O)c5ccc(C)cc5)ccc4o3)cc2)cc1`, the Potency was inconclusive: 23.1 µM [inhibitor, single point].
With `COc1cc(NC(=O)c2ccc(C)cc2)ccc1NC(=O)c1cc2ccccc2o1` the Potency was inconclusive: 20.6 µM [activator, single point].
In the case of `CCOC(=O)c1ccc(N2C(=O)C(CC(N)=O)N(CCc3ccc(OC)c(OC)c3)C2=S)cc1` (centres undefined), the Potency was inconclusive: 18.3 µM [inhibitor, single point].
With `Cc1cc2nn(-c3ccc(Cl)cc3)nc2cc1N` the Potency was inconclusive: 0.73 µM [activator, full curve].
In the case of `O=C(NCCCc1ccccc1)c1c(O)nc2sccn2c1=O`, the Potency was inconclusive: 29.1 µM [activator, single point].
For `Cc1ccc2c(c1)/C(=C/c1ccccc1C)C(=O)N2`, the Potency was inconclusive: 29.1 µM [inhibitor, single point].
In the case of `Cc1ccc(C(=O)NCC2CCCN2S(=O)(=O)c2ccc(C)cc2)cc1` (centres undefined), the “activity change, negative = inhibition” value was inactive: 1.32%.
With `CC(=O)Nc1ccccc1NC(=O)c1cc(C)ccc1C` the “activity change, negative = inhibition” value was inactive: -1.86%.
With `Cc1cc(C2=NNC(=NC3CCCCC3)SC2)c(C)n1-c1c(C)n(C)n(-c2ccccc2)c1=O` the Potency was inconclusive: 14.6 µM [inhibitor, partial curve].
In the case of `Cc1c(CC(=O)NCCC(=O)O)c(=O)oc2cc3occ(-c4ccccc4)c3cc12`, the “activity change, negative = inhibition” value was inactive: 23.5%.
In the case of `Cc1ccc(C2(c3ccccc3)NC(=O)N(CC(=O)NC3CCCCC3)C2=O)cc1C` (centres undefined), the “activity change, negative = inhibition” value was inactive: -7.16%.
In the case of `CN(C)/C=N/C(=S)Nc1ccc(Br)cc1F`, the Potency was inconclusive: 18.4 µM [activator, partial curve].
With `CC(OC(=O)CCN=C1NS(=O)(=O)c2ccccc21)C(=O)NCc1ccccc1` (centres undefined) the “activity change, negative = inhibition” value was inactive: 5.77%.
With `Cc1ccc(C)c(S(=O)(=O)c2c[nH]c(=S)[nH]c2=O)c1` the “activity change, negative = inhibition” value was inactive: 15.3%.
For `Cc1cc(C(=O)NNc2ccccc2F)no1`, the Potency was active: 6.51 µM.
In the case of `NCc1cccc(CNc2ccc([N+](=O)[O-])cc2C(N)=O)c1`, the “activity change, negative = inhibition” value was inactive: 9.01%.
In the case of `Cc1ncc(CO)c(/C=N/NC(=O)c2ccccc2Br)c1O`, the Potency was inconclusive: 29.1 µM [inhibitor, single point].
With `CCC(=O)Nc1cc(C(=O)OCC(=O)c2ccccc2)ccc1C` the Potency was inconclusive: 11.6 µM [activator, partial curve].
With `Cc1c(/C=N\NC(=O)c2c[nH]c3ccccc23)cnn1C` the Potency was inconclusive: 18.3 µM [activator, single point].
In the case of `O=C(COC(=O)c1cncc(Br)c1)NCc1ccc2c(c1)OCO2`, the “activity change, negative = inhibition” value was inactive: -6.22%.
For `CC1CCCCN1C(=O)CSCC(=O)Nc1nc(-c2cccs2)cs1` (centres undefined), the Potency was inconclusive: 14.6 µM [activator, partial curve].
With `Nc1c(C(=O)NCCc2ccccc2)nnn1Cc1ccccc1` the Potency was inconclusive: 5.17 µM [activator, partial curve].
With `O=c1[nH]c(C2CCCN(S(=O)(=O)c3ccccc3)C2)nc2c1nnn2Cc1cccc(Cl)c1` (centres undefined) the Potency was inconclusive: 25.9 µM [inhibitor, single point].
For `CCCOc1ccc(OCCSc2ncccn2)cc1`, the Potency was inconclusive: 8.2 µM [activator, partial curve].
For `CCc1ccc(NC(=S)N(CCN2CCOCC2)Cc2ccccc2F)cc1`, the Potency was inconclusive: 29.1 µM [inhibitor, single point].
For `Cc1nc2sc(C(N)=O)c(N)c2c2c1CCCC2`, the Potency was inconclusive: 2.59 µM [inhibitor, partial curve].
For `C(=C\c1ccccn1)/c1cccnc1`, the Potency was inconclusive: 23.1 µM [activator, partial curve].
In the case of `COCCn1c(C)cc(C(=O)COC(=O)c2[nH]c(C)c(C(C)=O)c2C)c1C`, the Potency was inconclusive: 25.9 µM [inhibitor, single point].
For `Cn1cncc1C#Cc1c(-c2ccc(S(C)(=O)=O)cc2)sc2ccccc12`, the Potency was inconclusive: 4.61 µM [inhibitor, single point].
For `CCCc1nc2ccccc2c(=O)n1NC(=O)c1c(O)c2ccccc2n(C)c1=O`, the “activity change, negative = inhibition” value was inactive: -14.5%.
With `Cc1ccnc2nc(C(=O)Nc3ccc(S(=O)(=O)N4CCCC4)cc3)nn12` the Potency was inconclusive: 6.51 µM [inhibitor, single point].
With `CCOC(=O)c1c(C)nc2c3ccccc3ccn12` the Potency was inconclusive: 16.4 µM [activator, partial curve, poor fit].
In the case of `Cc1ccc(S(=O)(=O)Nc2cccc(Cl)c2)cc1NC(=O)C1CC1`, the Potency was inconclusive: 4.61 µM [inhibitor, single point].
For `O=C(Nc1ccc(-c2nnc(-c3ccco3)o2)cc1)C(c1ccccc1)c1ccccc1`, the Potency was inconclusive: 23.1 µM [inhibitor, single point].
With `CN(C)/C=C/C(=O)/C=C/c1ccc(Cl)cc1Cl` the Potency was inconclusive: 20.6 µM [activator, partial curve].
In the case of `C[C@@]12C(=O)N(Cc3ccccc3)CC(=O)N1[C@H](/C=C/c1ccccc1)[C@@H]1C(=O)N(c3ccccc3)C(=O)[C@@H]12`, the Potency was inconclusive: 0.259 µM [activator, single point].
In the case of `COc1ccc(NC(=O)Nc2cc(C)ccc2OC)cc1`, the Potency was inconclusive: 18.4 µM [inhibitor, single point].
In the case of `O=S(=O)(c1ccc(Cl)cc1)N1CN(CC2CCCO2)c2nc3ccccc3nc21` (centres undefined), the “activity change, negative = inhibition” value was inactive: -1.28%.
With `Cc1cccc(C(=O)N/C(=C\c2ccco2)C(=O)N2CCCC2)c1` the “activity change, negative = inhibition” value was inactive: 23.6%.
For `CCOC(=O)Nc1ccc(NCc2ccc(F)cc2)nc1N`, the “activity change, negative = inhibition” value was inactive: -2.01%.
For `COc1ccc(CN2CCN(C(=O)c3ccc4nc(N5CCOCC5)sc4c3)CC2)c(OC)c1OC`, the Potency was active: 20.6 µM.
For `Cc1ccc2oc(C(=O)NCCC3CCCCO3)c(C)c2c1` (centres undefined), the Potency was inconclusive: 16.4 µM [activator, partial curve].
With `Cc1cc(C)n2nc(SCC(=O)NC(=O)c3ccccc3Cl)nc2n1` the Potency was inconclusive: 16.4 µM [activator, single point].
With `Cc1csc(=O)n1CC(=O)OCC(=O)NCc1ccccc1` the Potency was inconclusive: 11.6 µM [activator, partial curve, poor fit].
For `Cc1cccc(NS(=O)(=O)c2ccc(C)c(C(=O)NCc3ccccn3)c2)c1`, the “activity change, negative = inhibition” value was inactive: -18.3%.
For `CC(OC(=O)c1snc(C(=O)NC2CCCCC2)c1N)C(=O)NC(C)(C)C` (centres undefined), the Potency was inconclusive: 9.2 µM [inhibitor, partial curve].
With `Cc1nc(SCC(=O)OCc2ccccc2)c(C#N)c(-c2ccccc2)c1C(=O)Nc1ccccc1` the Potency was inconclusive: 16.4 µM [inhibitor, partial curve].
With `COc1ccc(C2CC(c3ccccc3)=NN2C(=O)CSc2ncccn2)cc1` (centres undefined) the “activity change, negative = inhibition” value was inactive: -2.02%.
In the case of `O=C(CCC(=O)Nc1ccc(F)cc1)N/N=C/c1cccs1`, the Potency was inconclusive: 29.1 µM [activator, single point].
In the case of `CCc1nc(SCc2ccc(Br)cc2)n[nH]1`, the Potency was inconclusive: 23.1 µM [activator, partial curve].
In the case of `CN(c1nc2ccccc2nc1Cl)S(=O)(=O)c1ccccc1`, the Potency was inconclusive: 29.1 µM [activator, single point].
In the case of `COc1ccc(CC(=O)Nc2c(C(=O)N3CCN(c4ccccc4OC)CC3)oc3ccccc23)cc1OC`, the Potency was inconclusive: 23.1 µM [inhibitor, single point].
In the case of `Cc1ccccc1-c1nnc(-c2ccccc2C)o1`, the Potency was inconclusive: 20.6 µM [activator, partial curve].

Source: PubChem BioAssay AID504467 (National Center for Advancing Translational Sciences (NCATS), 2011)
% is set by controls: 0 for no effect and ±100 for the full control effect; potency is the fitted concentration of half-maximal effect.
